Assay results from US12466851 (dated 2025).

Assay: general procedure: Fmoc solid-phase peptide synthesis
Details: oxidative folding step, analytical RP-HPLC, one disulfide bridge, sequence written open

H-D-Phe-Cys-Phe-D-Trp-Lys-Thr-Cys-L-threoninol
crude HPLC purity (run 1): 90% | crude HPLC purity (run 2): 92.59% | crude HPLC purity (run 3): 90.44%
